Our source for the binding values is patent US20180086788A1.

In the experiment the target is T1, mouse CP2c protein (mouse) (UniProt Q9ERA0).
T1 sequence (looked up): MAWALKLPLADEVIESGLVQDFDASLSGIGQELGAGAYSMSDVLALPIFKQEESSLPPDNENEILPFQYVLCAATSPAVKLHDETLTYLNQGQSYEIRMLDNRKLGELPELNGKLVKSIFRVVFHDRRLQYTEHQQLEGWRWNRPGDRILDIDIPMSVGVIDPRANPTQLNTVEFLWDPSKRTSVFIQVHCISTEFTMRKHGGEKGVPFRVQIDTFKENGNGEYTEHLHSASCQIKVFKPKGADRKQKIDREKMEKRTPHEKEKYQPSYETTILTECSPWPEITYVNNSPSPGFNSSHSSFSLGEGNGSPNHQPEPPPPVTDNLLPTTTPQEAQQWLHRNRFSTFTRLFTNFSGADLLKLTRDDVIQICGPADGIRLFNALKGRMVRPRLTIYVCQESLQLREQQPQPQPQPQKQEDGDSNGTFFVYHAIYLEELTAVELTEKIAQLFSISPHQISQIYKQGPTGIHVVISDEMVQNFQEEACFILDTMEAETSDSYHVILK
Put plainly: phage display.

Results are given in words; binding and its absence hold for the method and conditions named. Some results given as binding are weak or reduced against the parent protein; the word gives no strength.

In the case of HERRESNYPQRP [Peptide 5], the binding result is reported as “binds”.
